Binding data for 2 molecules are collected here from article PMC9177158.

No constants are given. Whether binding was seen depends on the method and setting. Binding seen in cells or lysates may run through a third protein. Some binding calls cover weakened binding; strength is not graded here.

Assay [1] addresses T1, Adenine nucleotide translocase-2 (rat, endogenous in kidney cortex) (rat (endogenous in rat kidney cortex)) (UniProt Q09073).
T1 sequence: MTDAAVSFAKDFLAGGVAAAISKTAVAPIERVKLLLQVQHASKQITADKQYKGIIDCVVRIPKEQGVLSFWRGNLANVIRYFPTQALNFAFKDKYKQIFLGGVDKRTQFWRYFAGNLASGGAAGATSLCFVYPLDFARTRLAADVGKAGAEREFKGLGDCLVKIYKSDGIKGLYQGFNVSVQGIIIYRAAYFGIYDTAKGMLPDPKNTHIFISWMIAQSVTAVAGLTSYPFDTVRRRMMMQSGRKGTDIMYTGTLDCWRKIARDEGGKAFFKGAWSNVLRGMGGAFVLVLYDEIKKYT
The assay can be described thus: co-IP; reciprocal; rat kidney cortex lysate, kit lysis buffer adjusted to 100 mM NaCl; anti-UCP2 or anti-ANT2 monoclonal antibody cross-linked to magnetic beads; room temperature, 35 min; immunoblot; no inhibitor. (In general: A western blot detects proteins with antibodies after separation by electrophoresis.)

The target in assay [2] is T1, Adenine nucleotide translocase-2 (rat, endogenous in kidney cortex) (rat (endogenous in rat kidney cortex)). The assay can be described thus: co-IP; as a1, samples incubated with GDP.
Assay [3] has as its target T2, Uncoupling protein-2 (rat, endogenous in kidney cortex) (rat (endogenous in rat kidney cortex)) (UniProt P56500).
T2 sequence: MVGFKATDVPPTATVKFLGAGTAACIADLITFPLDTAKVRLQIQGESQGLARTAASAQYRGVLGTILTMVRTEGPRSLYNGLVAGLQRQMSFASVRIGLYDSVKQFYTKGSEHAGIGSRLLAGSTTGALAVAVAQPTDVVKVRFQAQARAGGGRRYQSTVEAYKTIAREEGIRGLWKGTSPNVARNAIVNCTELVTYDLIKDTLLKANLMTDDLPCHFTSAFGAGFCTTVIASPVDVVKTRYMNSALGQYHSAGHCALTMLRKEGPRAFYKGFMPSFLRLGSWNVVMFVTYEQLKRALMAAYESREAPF
The assay can be described thus: co-IP; reciprocal; rat kidney cortex lysate, kit lysis buffer adjusted to 100 mM NaCl; anti-UCP2 or anti-ANT2 monoclonal antibody cross-linked to magnetic beads; room temperature, 35 min; immunoblot; no inhibitor.

Assay [4] deals with T2, Uncoupling protein-2 (rat, endogenous in kidney cortex) (rat (endogenous in rat kidney cortex)). The assay can be described thus: co-IP; as a1, samples incubated with GDP.

B1: Uncoupling protein-2 (rat, endogenous in kidney cortex) (protein, UniProt P56500 1-309)
chain: MVGFKATDVPPTATVKFLGAGTAACIADLITFPLDTAKVRLQIQGESQGLARTAASAQYRGVLGTILTMVRTEGPRSLYNGLVAGLQRQMSFASVRIGLYDSVKQFYTKGSEHAGIGSRLLAGSTTGALAVAVAQPTDVVKVRFQAQARAGGGRRYQSTVEAYKTIAREEGIRGLWKGTSPNVARNAIVNCTELVTYDLIKDTLLKANLMTDDLPCHFTSAFGAGFCTTVIASPVDVVKTRYMNSALGQYHSAGHCALTMLRKEGPRAFYKGFMPSFLRLGSWNVVMFVTYEQLKRALMAAYESREAPF
With B1, the values for the binding entry in assay [1] and in assay [2] were “binds” and “no binding (condition: samples incubated with GDP)”, respectively.

B2: Adenine nucleotide translocase-2 (rat, endogenous in kidney cortex) (protein, UniProt Q09073 1-298)
chain: MTDAAVSFAKDFLAGGVAAAISKTAVAPIERVKLLLQVQHASKQITADKQYKGIIDCVVRIPKEQGVLSFWRGNLANVIRYFPTQALNFAFKDKYKQIFLGGVDKRTQFWRYFAGNLASGGAAGATSLCFVYPLDFARTRLAADVGKAGAEREFKGLGDCLVKIYKSDGIKGLYQGFNVSVQGIIIYRAAYFGIYDTAKGMLPDPKNTHIFISWMIAQSVTAVAGLTSYPFDTVRRRMMMQSGRKGTDIMYTGTLDCWRKIARDEGGKAFFKGAWSNVLRGMGGAFVLVLYDEIKKYT
In the case of B2, the binding result was “binds” in assay [3] and “no binding (condition: samples incubated with GDP)” in assay [4].
